Laboratory results as given in paper PMC11442456.
Results are given in words; binding and its absence hold for the method and conditions named. Some entries that bind do so weakly or less than the wild type.

T1: human lysozyme (commercial, Sigma Aldrich L1667) (human), P61626
T1 chain: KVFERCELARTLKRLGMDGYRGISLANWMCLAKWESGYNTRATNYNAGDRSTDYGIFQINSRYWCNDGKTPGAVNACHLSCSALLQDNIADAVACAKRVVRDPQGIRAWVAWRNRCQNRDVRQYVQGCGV

T2: recombinant human lysozyme, isotopically labeled (expressed in Pichia pastoris) (human), P61626
T2 chain: T1 chain

B1: human lysozyme (commercial, Sigma Aldrich L1667), P61626 19-148 (enzyme)
chain: T1 chain
B2: recombinant human lysozyme, isotopically labeled (expressed in Pichia pastoris), P61626 19-148 (enzyme)
chain: T1 chain

How the values were obtained:
[1] = molecular target: T1, human lysozyme (commercial, Sigma …); assay: cryo-EM structure; helical reconstruction (RELION 4.0) of rigid irreversible fibrils; fibrils from 20 mg/ml lysozyme, 100 mM DTT, 10 mM NaCl, pH 7, 3 h at 85 °C (human) or 90 °C (HEWL), stirring at 300 rpm; both purified; details: remark: other sources report otherwise
[2] = molecular target: T2, recombinant human lysozyme, …; assay: solid-state NMR (2D PAIN, ^15N-^13C correlation); reversible fibrils co-fibrillized from a 1:1 mixture of ^15N and ^13C single-labeled human lysozyme (20 mg/ml, pH 7, 10 mM NaCl, 20 mM DTT, 5 min at 80 °C); 850 MHz, MAS 17 kHz, sample at 8 °C; both purified; details: remark: other sources report otherwise

| Binder | binding [1] | binding [2] |
| --- | --- | --- |
| B1 | binds |  |
| B2 |  | binds |
